Source: paper PMC8110956, “An infection-induced RhoB-Beclin 1-Hsp90 complex enhances clearance of uropathogenic Escherichia coli” (Nature Communications, 2021)
These are yes or no findings as the source states them, for the method shown. In cells and extracts the contact can be indirect. Some binding calls cover weakened binding; strength is not graded here.

By UniProt entry, the sequences of proteins in these tests, tags left out. Where a name states a change or a piece, a line headed by the entry shows the natural chain unless it says otherwise. Residues count along the entry.
UniProt P62745: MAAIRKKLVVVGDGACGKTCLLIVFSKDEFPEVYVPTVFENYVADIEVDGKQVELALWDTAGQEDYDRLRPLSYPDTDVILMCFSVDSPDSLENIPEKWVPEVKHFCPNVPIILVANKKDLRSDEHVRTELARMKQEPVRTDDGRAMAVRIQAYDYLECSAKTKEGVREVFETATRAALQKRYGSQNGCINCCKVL
3×FLAG-RhoB (89–196): residues 89-196 of P62745
3×FLAG-RhoB (118–196): residues 118-196 of P62745
UniProt Q14457: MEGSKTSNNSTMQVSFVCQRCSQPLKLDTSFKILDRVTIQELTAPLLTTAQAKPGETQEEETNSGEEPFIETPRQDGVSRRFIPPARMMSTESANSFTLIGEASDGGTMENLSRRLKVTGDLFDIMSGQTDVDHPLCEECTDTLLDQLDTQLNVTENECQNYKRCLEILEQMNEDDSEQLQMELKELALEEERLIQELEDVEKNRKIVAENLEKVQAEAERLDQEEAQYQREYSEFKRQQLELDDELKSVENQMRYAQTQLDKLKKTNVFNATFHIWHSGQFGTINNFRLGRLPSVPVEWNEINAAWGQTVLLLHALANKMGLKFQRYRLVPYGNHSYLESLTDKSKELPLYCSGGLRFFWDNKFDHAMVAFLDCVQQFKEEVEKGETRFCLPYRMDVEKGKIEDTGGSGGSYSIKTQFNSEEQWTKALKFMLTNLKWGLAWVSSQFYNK

Tests used:
[1] = molecular target: 3×FLAG-RhoB (118–196) (human) (UniProt P62745); test: co-IP; HEK293 co-transfected with MYC-Beclin 1 and FLAG- or 3×FLAG-RhoB constructs, 48 h; lysate (50 mM Tris-HCl pH 7.4, 150 mM NaCl, 1% NP-40) on anti-FLAG or anti-c-MYC beads overnight at 4 °C, eluted with 3×FLAG or c-MYC peptide; western blot
[2] = molecular target: 3×FLAG-RhoB (89–196) (human) (UniProt P62745); test: as above
[3] = molecular target: endogenous RhoB (5637 bladder epithelial cells) (human (endogenous in 5637)) (UniProt P62745); test: co-IP; endogenous proteins of 5637 bladder epithelial cells treated with LPS for 2 h or infected by CFT073; lysate with anti-RhoB, anti-Beclin 1 or IgG overnight at 4 °C, Protein A/G beads; western blot
[4] = molecular target: endogenous Beclin 1 (5637 bladder epithelial cells) (human (endogenous in 5637)) (UniProt Q14457); test: as above

In the case of “MYC-tagged Beclin 1 (from UniProt Q14457 1-450)”, the binding [1] is reported as “binds” and the binding [2] is reported as “binds”.
With “endogenous Beclin 1 (5637 bladder epithelial cells) (from UniProt Q14457 1-450)” the binding [3] was “binds”.
For “endogenous RhoB (5637 bladder epithelial cells) (from UniProt P62745 1-196)”, the binding [4] was “binds”.
